Assay [1] concerns the target Beclin 1 (endogenous, HeLa) (human (endogenous in HeLa)) (UniProt Q14457). Put plainly: co-IP; HeLa/BCL2 cells before and early in a time course of starvation in HBSS; precipitation with polyclonal rabbit anti-Beclin 1, BCL2 probed with a monoclonal HRP antibody.
For assay [2] the target is unchanged. In words: co-IP; HeLa/BCL2 cells 2 hr after starvation in HBSS; precipitation with polyclonal rabbit anti-Beclin 1, BCL2 probed with a monoclonal HRP antibody.

Amino acid sequences for entries named in this document (tags omitted).
UniProt P10415: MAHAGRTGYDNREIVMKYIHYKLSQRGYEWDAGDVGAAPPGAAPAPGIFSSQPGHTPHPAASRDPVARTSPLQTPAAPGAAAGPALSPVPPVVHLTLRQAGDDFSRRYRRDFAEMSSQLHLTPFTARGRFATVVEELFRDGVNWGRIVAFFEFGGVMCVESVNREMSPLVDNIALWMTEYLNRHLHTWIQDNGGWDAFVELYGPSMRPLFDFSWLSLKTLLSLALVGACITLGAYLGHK

This is an account of results in publication PMC4337728.

Results are given in words; binding and its absence hold for the method and conditions named. In cells and extracts the contact can be indirect. Some results given as binding are weak or reduced against the parent protein; the word gives no strength.

As to “Myc-BCL2, wild-type (from UniProt P10415 1-239)”, the results for the binding result in assay [1] and in assay [2] were “binds” and “no binding (condition: 2 hr after starvation in HBSS)”, respectively.
